# Assay results reported in the supplement of paper PMC12595434, “Development of retinoid nuclear receptor pathway antagonists through targeting aldehyde dehydrogenase 1A3” (iScience, 2025).
# The chains behind the UniProt entries cited, without tags or fusion partners. Where a name states a change or a piece, a line headed by the entry shows the natural chain unless it says otherwise.
# UniProt Q9Y294, whole entry: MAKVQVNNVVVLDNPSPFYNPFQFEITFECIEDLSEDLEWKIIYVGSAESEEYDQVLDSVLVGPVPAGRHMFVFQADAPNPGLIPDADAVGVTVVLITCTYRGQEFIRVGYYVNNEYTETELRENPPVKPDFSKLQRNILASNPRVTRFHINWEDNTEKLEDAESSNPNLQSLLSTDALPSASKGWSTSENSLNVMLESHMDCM
# UniProt Q9UKK6: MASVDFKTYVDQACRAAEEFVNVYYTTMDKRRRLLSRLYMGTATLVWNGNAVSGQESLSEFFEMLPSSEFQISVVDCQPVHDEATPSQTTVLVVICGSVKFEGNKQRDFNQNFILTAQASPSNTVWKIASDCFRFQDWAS
# UniProt Q9ULM6, whole entry: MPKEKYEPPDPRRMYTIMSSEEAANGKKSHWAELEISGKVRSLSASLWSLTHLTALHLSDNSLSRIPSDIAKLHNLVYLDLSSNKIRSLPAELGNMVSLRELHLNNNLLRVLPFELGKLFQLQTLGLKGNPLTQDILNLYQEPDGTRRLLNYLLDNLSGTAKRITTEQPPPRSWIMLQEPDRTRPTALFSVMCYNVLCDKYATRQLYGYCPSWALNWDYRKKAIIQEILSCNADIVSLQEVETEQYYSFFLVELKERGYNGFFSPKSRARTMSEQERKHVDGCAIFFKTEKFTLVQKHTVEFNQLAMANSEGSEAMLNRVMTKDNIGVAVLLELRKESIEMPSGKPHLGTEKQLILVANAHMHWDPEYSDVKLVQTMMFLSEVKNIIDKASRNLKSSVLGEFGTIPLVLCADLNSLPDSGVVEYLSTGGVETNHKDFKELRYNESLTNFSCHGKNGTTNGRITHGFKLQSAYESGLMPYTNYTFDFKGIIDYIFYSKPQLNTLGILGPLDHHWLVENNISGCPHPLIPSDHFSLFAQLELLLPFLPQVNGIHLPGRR
# UniProt Q9UN81: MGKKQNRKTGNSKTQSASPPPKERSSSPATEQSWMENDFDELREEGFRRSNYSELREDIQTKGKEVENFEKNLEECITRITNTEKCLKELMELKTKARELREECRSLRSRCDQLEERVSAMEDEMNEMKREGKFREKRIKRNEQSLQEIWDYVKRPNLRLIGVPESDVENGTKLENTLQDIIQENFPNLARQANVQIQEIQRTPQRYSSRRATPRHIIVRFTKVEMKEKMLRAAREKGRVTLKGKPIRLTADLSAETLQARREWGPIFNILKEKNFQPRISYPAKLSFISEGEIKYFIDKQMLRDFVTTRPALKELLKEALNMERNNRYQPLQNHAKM
# UniProt Q9UMF0: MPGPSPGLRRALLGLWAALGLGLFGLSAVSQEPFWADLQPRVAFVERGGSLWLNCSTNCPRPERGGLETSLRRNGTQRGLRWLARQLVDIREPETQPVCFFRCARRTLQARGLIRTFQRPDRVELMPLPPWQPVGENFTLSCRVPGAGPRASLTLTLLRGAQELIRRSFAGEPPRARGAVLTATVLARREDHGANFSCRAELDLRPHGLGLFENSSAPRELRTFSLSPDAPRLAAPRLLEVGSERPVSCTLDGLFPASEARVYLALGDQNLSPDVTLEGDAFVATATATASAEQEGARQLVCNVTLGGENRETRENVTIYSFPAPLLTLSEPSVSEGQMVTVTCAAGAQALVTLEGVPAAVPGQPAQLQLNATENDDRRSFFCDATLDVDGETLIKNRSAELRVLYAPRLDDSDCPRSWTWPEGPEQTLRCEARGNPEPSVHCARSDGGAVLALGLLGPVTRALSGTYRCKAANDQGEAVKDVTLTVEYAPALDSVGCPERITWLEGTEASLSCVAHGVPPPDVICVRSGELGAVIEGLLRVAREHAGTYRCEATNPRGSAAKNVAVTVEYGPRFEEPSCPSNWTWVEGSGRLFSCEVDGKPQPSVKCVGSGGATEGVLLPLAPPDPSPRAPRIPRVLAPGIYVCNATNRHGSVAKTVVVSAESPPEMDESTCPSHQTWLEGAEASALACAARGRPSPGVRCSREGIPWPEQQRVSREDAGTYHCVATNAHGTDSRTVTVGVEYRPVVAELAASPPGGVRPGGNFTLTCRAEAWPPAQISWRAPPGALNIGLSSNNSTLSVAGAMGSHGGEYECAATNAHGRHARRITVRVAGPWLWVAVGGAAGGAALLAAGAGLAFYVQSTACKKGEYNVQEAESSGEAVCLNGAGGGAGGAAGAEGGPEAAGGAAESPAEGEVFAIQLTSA
# UniProt Q9UJY4: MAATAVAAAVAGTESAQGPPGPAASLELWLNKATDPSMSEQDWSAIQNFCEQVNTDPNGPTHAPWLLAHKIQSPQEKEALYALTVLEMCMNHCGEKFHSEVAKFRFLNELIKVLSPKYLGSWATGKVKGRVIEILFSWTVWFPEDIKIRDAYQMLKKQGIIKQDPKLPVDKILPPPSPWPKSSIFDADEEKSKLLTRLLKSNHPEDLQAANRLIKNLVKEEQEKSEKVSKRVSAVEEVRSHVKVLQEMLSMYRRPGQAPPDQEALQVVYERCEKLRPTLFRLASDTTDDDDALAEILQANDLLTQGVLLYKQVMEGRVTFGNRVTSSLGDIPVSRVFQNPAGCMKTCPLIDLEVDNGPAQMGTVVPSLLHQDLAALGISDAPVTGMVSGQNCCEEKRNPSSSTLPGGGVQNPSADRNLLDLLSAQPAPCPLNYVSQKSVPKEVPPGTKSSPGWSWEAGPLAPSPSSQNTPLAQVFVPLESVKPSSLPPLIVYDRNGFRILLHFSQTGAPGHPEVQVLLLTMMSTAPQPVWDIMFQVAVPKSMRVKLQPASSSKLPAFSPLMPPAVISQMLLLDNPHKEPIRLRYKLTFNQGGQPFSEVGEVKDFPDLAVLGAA
# UniProt Q9UNS2: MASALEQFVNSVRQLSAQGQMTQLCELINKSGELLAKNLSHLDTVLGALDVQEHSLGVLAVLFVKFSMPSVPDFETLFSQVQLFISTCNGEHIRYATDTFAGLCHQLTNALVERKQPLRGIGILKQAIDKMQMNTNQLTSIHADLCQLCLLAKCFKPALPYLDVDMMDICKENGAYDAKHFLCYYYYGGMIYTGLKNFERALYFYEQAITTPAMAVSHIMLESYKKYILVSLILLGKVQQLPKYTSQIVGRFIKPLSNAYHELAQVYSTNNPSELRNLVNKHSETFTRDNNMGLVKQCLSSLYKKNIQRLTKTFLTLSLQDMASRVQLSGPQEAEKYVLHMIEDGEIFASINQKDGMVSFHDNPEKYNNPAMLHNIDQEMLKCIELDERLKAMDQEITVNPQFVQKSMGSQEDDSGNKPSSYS
# UniProt Q9UKG9: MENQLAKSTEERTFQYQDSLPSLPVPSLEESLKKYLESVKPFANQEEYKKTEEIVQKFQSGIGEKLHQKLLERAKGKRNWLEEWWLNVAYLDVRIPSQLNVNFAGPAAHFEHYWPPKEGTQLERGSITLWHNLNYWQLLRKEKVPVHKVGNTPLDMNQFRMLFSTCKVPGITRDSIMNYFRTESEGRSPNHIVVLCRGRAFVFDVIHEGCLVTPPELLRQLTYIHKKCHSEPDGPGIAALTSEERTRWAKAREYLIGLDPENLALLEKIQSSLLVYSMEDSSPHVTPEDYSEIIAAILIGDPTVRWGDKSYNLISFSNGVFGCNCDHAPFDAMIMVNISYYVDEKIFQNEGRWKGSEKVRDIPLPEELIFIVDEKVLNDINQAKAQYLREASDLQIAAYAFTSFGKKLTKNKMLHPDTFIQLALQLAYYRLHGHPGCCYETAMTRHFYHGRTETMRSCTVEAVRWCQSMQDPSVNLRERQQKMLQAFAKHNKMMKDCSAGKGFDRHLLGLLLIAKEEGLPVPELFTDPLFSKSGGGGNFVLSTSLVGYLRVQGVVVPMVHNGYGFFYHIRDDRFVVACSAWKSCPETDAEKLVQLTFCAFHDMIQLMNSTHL
# UniProt Q9UNZ2: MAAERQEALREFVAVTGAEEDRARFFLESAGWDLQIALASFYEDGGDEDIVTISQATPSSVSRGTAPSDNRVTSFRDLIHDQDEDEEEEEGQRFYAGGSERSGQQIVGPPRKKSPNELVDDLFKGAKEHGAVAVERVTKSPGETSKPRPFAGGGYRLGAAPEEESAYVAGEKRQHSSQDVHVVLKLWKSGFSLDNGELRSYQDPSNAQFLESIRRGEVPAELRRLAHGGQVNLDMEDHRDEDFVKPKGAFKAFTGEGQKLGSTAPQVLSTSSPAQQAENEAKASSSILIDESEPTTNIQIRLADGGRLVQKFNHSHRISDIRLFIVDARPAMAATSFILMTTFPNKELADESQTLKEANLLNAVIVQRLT
# UniProt Q9UJ68: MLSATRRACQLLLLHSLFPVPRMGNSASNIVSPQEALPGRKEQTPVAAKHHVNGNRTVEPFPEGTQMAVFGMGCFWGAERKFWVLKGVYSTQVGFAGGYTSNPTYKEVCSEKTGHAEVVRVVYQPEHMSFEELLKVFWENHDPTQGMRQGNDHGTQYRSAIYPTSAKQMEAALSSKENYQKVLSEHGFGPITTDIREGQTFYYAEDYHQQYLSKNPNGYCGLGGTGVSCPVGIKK
# UniProt Q9Y285: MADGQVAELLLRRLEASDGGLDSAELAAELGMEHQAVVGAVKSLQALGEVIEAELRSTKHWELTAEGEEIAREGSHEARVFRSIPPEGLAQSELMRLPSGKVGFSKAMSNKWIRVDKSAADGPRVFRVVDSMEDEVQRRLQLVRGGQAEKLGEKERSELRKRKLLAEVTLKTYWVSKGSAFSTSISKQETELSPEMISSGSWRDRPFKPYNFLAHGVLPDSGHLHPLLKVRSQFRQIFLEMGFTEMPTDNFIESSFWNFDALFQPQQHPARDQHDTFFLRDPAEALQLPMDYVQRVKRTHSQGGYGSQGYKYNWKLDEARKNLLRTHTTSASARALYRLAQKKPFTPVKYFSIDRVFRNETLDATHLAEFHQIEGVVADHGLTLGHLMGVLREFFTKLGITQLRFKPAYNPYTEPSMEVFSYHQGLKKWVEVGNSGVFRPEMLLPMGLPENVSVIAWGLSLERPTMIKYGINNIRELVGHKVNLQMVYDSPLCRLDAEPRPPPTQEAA
# UniProt Q9UHJ6: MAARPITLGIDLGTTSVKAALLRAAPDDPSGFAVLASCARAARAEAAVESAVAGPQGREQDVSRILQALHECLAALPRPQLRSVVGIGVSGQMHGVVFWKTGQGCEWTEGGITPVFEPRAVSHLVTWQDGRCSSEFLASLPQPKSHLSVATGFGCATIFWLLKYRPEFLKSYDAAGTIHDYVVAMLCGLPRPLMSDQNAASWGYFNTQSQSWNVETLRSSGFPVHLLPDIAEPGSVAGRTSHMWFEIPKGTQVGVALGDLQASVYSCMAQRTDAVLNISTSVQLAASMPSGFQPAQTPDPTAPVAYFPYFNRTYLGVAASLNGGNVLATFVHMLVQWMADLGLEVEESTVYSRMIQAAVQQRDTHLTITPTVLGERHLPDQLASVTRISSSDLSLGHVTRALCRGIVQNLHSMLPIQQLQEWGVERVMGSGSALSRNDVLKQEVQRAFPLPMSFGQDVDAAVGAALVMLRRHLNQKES
# UniProt Q9UPZ3: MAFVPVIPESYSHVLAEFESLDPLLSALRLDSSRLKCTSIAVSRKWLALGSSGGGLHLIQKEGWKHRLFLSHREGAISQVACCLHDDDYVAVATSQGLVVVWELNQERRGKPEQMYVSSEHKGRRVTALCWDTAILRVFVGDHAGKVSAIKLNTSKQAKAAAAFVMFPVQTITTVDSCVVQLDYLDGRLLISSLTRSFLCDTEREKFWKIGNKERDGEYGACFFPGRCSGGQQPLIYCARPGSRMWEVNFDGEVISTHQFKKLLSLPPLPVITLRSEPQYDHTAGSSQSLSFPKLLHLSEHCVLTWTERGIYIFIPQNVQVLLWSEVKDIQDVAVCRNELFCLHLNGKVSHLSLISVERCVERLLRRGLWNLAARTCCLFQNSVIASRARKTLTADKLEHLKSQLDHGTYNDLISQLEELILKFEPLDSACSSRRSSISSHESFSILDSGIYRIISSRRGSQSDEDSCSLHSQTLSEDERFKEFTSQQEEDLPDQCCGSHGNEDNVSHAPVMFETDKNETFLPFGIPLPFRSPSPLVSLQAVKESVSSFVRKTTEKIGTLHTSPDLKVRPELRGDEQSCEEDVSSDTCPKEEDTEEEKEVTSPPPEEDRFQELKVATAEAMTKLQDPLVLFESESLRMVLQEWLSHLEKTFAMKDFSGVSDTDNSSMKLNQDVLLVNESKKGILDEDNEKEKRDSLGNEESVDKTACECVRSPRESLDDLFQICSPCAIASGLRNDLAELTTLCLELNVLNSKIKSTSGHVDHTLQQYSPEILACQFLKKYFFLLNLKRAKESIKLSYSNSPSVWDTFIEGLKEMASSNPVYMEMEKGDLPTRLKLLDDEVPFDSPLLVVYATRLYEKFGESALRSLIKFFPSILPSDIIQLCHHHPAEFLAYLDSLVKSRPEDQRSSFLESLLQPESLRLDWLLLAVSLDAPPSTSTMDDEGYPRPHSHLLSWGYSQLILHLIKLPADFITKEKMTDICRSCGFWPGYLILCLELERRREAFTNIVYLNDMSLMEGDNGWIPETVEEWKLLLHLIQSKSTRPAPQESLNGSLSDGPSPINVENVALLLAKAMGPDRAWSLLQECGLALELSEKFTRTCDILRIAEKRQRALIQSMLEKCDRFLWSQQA
# The list shows a part of the results. This is a noisy data set.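 Many melting curves are irregular; where none melted, Tm was taken as 64 °C.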
# Compound: CCc1cnccc1C(=O)Nc1cc2c(cc1F)NC(=O)CC2
# Assay: melting temperature shift (DMSO Tm minus MBE1-treated Tm) in cellular thermal proteome profiling; higher = less thermal stabilization by MBE1 (negative = stabilized by MBE1)
# Conditions: A375
Target,melting temperature shift (MBE1 concentration: 100 nM) [°C],melting temperature shift (MBE1 concentration: 1 uM) [°C]
EXOC7 (UniProt Q9UPT5),-0.499,-0.438
ASF1A (UniProt Q9Y294),0.519,1.14
SLC12A6 (UniProt Q9UHW9),-1.01,-2.46
FEM1B (UniProt Q9UK73),-0.937,0.379
XPO7 (UniProt Q9UIA9),-0.188,-0.221
UniProt Q9UKK6,-0.448,-0.48
UniProt Q9UJJ9,-2.36,1.19
SOX13 (UniProt Q9UN79),-0.107,4.56
CNOT6 (UniProt Q9ULM6),-0.0527,-0.48
UniProt Q9UN81,-0.389,0.458
UniProt Q9UQ16,1.29,0.33
HERC5 (UniProt Q9UII4),-0.36,-0.708
UniProt Q9UMF0,-4.78,-0.0672
DUSP12 (UniProt Q9UNI6),-0.11,0.397
GGA2 (UniProt Q9UJY4),-1.48,-1.43
UniProt Q9Y2H1,0.476,-0.183
PCYOX1 (UniProt Q9UHG3),-1.58,-1.06
COPS3 (UniProt Q9UNS2),-1.64,-0.449
SNX6 (UniProt Q9UNH7),-0.11,0.721
UniProt Q9UKG9,1.72,1.28

# As entered above.
# In melting temperature shift (MBE1 concentration: 1 uM) [°C], DUSP12 (UniProt Q9UNI6) is listed with 0.397
# In melting temperature shift (MBE1 concentration: 100 nM) [°C], UniProt Q9UMF0 is listed with -4.78
# In melting temperature shift (MBE1 concentration: 1 uM) [°C], CNOT6 (UniProt Q9ULM6) is listed with -0.48

# Additional results.

Target,melting temperature shift (MBE1 concentration: 100 nM) [°C],melting temperature shift (MBE1 concentration: 1 uM) [°C]
DCTN4 (UniProt Q9UJW0),-6.54,0.1
CDYL (UniProt Q9Y232),-1.49,-2.32
NSFL1C (UniProt Q9UNZ2),-0.349,-0.318
UniProt Q9UJ68,-0.446,-0.16
TTF2 (UniProt Q9UNY4),-0.565,-0.754
UniProt Q9UIF9,-0.266,-0.66
FARSA (UniProt Q9Y285),0.586,0.391
SEC63 (UniProt Q9UGP8),-0.282,0.459
PSME2 (UniProt Q9UL46),-0.684,0.168
UniProt Q9Y2I7,0.165,0.202
UniProt Q9Y297,1.27,0.195
TRAPPC2L (UniProt Q9UL33),-0.0366,-0.171
CEP131 (UniProt Q9UPN4),-1.56,-0.855
FBXO4 (UniProt Q9UKT5),-0.317,0.659
UniProt Q9UHJ6,0.238,0.58
ISY1 (UniProt Q9ULR0),-0.384,-0.468
DLGAP4 (UniProt Q9Y2H0),-1.04,-0.269
LIMCH1 (UniProt Q9UPQ0),-1.24,-0.403
LIMA1 (UniProt Q9UHB6),-4.52,-2.38
PACSIN3 (UniProt Q9UKS6),1.11,0.397

Target,melting temperature shift (MBE1 concentration: 100 nM) [°C],melting temperature shift (MBE1 concentration: 1 uM) [°C]
TRMT6 (UniProt Q9UJA5),-1.01,0.385
ASAP1 (UniProt Q9ULH1),0.824,0.556
HPS5 (UniProt Q9UPZ3),-0.747,0.739
WDR3 (UniProt Q9UNX4),0.91,0.336
TBK1 (UniProt Q9UHD2),-0.979,-0.4
FBXW11 (UniProt Q9UKB1),0.867,4.26
UniProt Q9UI43,-0.446,0.104
HECTD1 (UniProt Q9ULT8),0.611,0.0855
ERGIC3 (UniProt Q9Y282),-1.64,2.54
UniProt Q9UJT0,-0.556,0.275
SHOC2 (UniProt Q9UQ13),-1.11,0.771
UniProt Q9ULL5,0.0192,-0.448
UniProt Q9ULQ0,0.0122,0.171
EIF3L (UniProt Q9Y262),-0.208,0.0305
UniProt Q9UN36,-0.55,-0.754
PIN4 (UniProt Q9Y237),-0.912,-0.657
EXOG (UniProt Q9Y2C4),-1.32,0.542
HACL1 (UniProt Q9UJ83),0.121,-1.11
PISD (UniProt Q9UG56),-1.22,-1.11
SWAP70 (UniProt Q9UH65),-0.154,-0.207
